Laboratory results published in patent US20240341337A1, “METHOD FOR CREATING MASKING COMPOSITIONS” (GIVAUDAN SA, priority 2021, published 2024).

Test: GC-O analysis of pea protein isolate to identify key off-notes
Conditions: pea protein isolate Pisane C9, GC-O

Structure (SMILES)	Descriptors (off-note odor)
CCCCCCO [Ex. E, hexanol]	Soapy
CCCC/C=C/C=O [Ex. C, heptenal-2-trans]	Cardboardy
COc1nccnc1C(C)C [Ex. A, propyl-iso-2 methoxy-3-pyrazine]	Pea-like
COc1nccnc1CC(C)C [Ex. B, isobutyl-3-methoxy-2-pyrazine]	Earthy green
CC/C=C\CCC=O [Ex. D, heptenal-4-cis]	Vegetal
